In publication PMC8139965 one finds binding data, which are given here for 1 molecule.

This assay concerns the target T1, EphA3 on the surface of human TNBC cell line HCC70 (human (endogenous in HCC70)) (UniProt P29320).
T1 sequence: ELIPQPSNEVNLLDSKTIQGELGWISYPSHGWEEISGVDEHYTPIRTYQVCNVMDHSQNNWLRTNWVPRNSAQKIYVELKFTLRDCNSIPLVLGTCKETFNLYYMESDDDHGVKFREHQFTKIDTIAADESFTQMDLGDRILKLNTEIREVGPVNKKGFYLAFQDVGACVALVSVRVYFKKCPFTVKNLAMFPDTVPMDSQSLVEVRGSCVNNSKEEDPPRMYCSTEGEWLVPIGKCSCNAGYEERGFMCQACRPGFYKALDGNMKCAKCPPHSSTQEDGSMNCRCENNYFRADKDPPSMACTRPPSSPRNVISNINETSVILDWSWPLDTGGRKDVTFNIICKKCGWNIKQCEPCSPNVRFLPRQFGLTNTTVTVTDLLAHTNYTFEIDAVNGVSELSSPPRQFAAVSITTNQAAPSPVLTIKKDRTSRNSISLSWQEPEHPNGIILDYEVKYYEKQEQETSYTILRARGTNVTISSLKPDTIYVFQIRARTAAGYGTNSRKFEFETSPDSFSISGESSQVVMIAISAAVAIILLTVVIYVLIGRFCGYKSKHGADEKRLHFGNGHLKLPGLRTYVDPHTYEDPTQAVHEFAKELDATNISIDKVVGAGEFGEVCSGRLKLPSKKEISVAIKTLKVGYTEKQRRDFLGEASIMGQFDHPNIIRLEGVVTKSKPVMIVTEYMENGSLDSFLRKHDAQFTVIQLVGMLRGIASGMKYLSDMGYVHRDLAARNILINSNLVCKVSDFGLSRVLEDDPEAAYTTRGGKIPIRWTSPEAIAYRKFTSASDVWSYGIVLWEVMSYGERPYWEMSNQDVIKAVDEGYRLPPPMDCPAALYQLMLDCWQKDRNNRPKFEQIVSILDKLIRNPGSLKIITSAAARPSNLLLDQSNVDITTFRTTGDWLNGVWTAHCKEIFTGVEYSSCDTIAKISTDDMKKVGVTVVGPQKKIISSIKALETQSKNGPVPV
Kind of assay: proximity ligation; HCC70 cells treated with recombinant human IL-26 (30 ng/ml) for 1 h, fixed with 4% paraformaldehyde; goat anti-human IL-26 pAb and mouse anti-human EphA3 mAb; Duolink in situ PLA; only the binder purified.

These are yes or no findings as the source states them, for the method shown. Binding seen in cells or lysates may run through a third protein. Some results given as binding are weak or reduced against the parent protein; the word gives no strength.

B1: recombinant human IL-26 dimer (ligand, UniProt Q9NPH9 22-171)
chain: KHKQSSFTKSCYPRGTLSQAVDALYIKAAWLKATIPEDRIKNIRLLKKKTKKQFMKNCQFQEQLLSFFMEDVFGQLQLQGCKKIRFVEDFHSLRQKLSHCISCASSAREMKSITRMKRIFYRIGNKGIYKAISELDILLSWIKKLLESSQ
Take B1: the binding result is given as “binds”.
